Measurements from patent US8642728.
No constants are given. Whether binding was seen depends on the method and setting. Some results given as binding are weak or reduced against the parent protein; the word gives no strength. Sequences can lack the tags named with a protein.

By UniProt entry, the sequences of proteins in these tests, tags left out. Residues count along the entry.
UniProt P02459, residues 182-1241: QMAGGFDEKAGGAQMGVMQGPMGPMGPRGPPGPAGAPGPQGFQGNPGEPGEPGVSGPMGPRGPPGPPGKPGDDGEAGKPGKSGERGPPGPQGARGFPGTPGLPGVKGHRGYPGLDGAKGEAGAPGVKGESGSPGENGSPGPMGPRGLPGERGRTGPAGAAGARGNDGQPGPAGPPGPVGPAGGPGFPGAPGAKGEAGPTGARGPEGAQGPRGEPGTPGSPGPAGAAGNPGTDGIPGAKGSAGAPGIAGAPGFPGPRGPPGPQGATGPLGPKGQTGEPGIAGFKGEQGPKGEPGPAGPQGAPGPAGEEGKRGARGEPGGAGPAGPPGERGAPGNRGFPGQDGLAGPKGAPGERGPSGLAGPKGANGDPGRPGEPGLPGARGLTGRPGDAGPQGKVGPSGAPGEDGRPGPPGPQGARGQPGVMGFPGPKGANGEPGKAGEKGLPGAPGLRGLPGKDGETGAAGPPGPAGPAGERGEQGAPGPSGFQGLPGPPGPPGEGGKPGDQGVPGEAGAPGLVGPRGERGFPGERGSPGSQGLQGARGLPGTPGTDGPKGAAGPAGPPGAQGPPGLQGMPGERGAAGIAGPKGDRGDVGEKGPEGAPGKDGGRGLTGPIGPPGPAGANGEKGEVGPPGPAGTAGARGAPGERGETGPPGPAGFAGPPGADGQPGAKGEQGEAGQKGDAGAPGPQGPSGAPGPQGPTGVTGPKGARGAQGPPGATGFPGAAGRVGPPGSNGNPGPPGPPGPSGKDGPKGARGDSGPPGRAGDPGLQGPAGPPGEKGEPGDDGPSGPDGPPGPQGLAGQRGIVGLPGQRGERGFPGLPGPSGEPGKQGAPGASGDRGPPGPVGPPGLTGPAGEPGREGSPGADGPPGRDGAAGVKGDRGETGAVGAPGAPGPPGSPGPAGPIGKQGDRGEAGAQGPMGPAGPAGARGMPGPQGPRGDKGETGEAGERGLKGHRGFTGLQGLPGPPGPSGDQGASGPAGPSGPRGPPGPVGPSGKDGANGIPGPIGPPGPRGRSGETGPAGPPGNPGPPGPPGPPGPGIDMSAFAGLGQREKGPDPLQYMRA
UniProt P02461, residues 154-1221: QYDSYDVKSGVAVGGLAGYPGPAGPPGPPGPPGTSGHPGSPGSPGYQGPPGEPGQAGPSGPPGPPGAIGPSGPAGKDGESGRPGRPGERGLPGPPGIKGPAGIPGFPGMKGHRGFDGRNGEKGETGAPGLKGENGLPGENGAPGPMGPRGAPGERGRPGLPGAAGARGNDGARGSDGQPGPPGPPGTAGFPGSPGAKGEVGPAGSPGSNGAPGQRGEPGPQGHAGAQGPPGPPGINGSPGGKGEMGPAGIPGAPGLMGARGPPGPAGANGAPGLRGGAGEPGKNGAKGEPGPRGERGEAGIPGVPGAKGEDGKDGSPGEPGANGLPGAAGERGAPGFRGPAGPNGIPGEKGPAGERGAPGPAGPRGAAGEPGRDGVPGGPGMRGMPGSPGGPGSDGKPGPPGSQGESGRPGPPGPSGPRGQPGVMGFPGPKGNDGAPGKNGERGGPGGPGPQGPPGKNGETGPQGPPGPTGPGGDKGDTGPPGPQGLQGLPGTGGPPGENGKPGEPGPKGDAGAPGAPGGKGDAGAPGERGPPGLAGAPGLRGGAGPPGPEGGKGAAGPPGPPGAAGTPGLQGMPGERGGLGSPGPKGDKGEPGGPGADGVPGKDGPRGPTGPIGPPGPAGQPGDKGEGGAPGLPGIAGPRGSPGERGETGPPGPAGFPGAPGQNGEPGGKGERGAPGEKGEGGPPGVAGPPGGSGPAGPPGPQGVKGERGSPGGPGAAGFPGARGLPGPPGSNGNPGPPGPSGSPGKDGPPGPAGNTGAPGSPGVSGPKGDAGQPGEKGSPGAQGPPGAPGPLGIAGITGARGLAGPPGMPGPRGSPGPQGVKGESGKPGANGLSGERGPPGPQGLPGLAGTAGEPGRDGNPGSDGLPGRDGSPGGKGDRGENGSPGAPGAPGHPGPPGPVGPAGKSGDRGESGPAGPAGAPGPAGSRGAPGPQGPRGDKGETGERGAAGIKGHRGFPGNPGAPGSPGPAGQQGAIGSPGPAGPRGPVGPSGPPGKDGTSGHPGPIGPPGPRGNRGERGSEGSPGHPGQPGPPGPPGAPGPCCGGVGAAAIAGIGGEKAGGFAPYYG

Columns and labels:
[1] = molecular target: collagen II Toolkit peptide II-1; assay: ELISA screen of plate-bound collagen II Toolkit peptides
[2] = molecular target: collagen II Toolkit peptide II-26; assay: as above
[3] = molecular target: collagen II Toolkit peptide II-35; assay: as above
[4] = molecular target: collagen II Toolkit peptide II-45; assay: as above
[5] = molecular target: collagen III Toolkit peptide III-36; assay: ELISA screen of plate-bound collagen III Toolkit peptides
[6] = molecular target: type II collagen (bovine) (UniProt P02459); assay: solid-phase ELISA; coated collagen, Fc-fusion 5 µg/ml, OD450
[7] = molecular target: type III collagen (human) (UniProt P02461); assay: as above
[8] = molecular target: GPC(GPP)5GAOGASGDR(GPP)5GPC-NH2; assay: OSCAR-Fc ELISA on substituted triple-helical peptides (FIG. 8)
[9] = molecular target: GPC(GPP)5GAOGPAGSA(GPP)5GPC-NH2; assay: as above
[10] = molecular target: GPC(GPP)5GAOGPAGYA(GPP)5GPC-NH2; assay: as above
[11] = molecular target: collagen II Toolkit peptide II-1; assay: ELISA screen of plate-bound Toolkit peptides with OSCAR-Fc (Table 4)
[12] = molecular target: collagen II Toolkit peptide II-26; assay: as above
[13] = molecular target: collagen II Toolkit peptide II-35; assay: as above
[14] = molecular target: collagen II Toolkit peptide II-45; assay: as above
[15] = molecular target: collagen III Toolkit peptide III-36; assay: as above
[16] = molecular target: GPC(GPP)5-GAOGPAGFA-(GPP)5GPC-NH2; assay: told in the legend of FIG. 13; binding shown by OSCAR-Fc ELISA (FIGS. 7, 8)

binding [1]: binds | binding [2]: binds | binding [3]: binds | binding [4]: binds | binding [5]: binds | binding [6]: binds | binding [7]: binds | binding [8]: binds | binding [9]: binds | binding [10]: binds | binding [11]: binds | binding [12]: binds | binding [13]: binds | binding [14]: binds | binding [15]: binds | binding [16]: binds
B1: human OSCAR-Fc fusion protein (Fc fusion, UniProt Q8IYS5 19-220, looked up, not shown: a dimerising Fc or GST)
chain: DITPSVPPASYHPKPWLGAQPATVVTPGVNVTLRCRAPQPAWRFGLFKPGEIAPLLFRDVSSELAEFFLEEVTPAQGGIYRCCYRRPDWGPGVWSQPSDVLELLVTEELPRPSLVALPGPVVGPGANVSLRCAGRLRNMSFVLYREGVAAPLQYRHSAQPWADFTLLGARAPGTYSCYYHTPSAPYVLSQRSEVLVISWEGE
